## Drug screen on melanoma cell lines: apoptosis marker

From a melanoma drug combination screen (doi:10.1371/journal.pone.0140310); values rounded.

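Human melanoma cells were exposed to a pair of drugs for 72 h in 1,536-well plates and read by automated microscopy after fixing and staining. The read-out is the fraction of cleaved-PARP-positive nuclei, in % of that fraction in the DMSO control; 200 means twice the control level of this apoptosis marker. Every drug was used at one fixed concentration, the higher of two screened. The file gives one value for each pair and line, without errors, so small differences may be noise. Basal and induced levels differ widely between cell lines.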 This is part of the screen, not chosen by result.

Drugs:
fludarabine (1000 nM): Nc1nc(F)nc2c1ncn2[C@@H]1O[C@H](CO)[C@@H](O)[C@@H]1O
GW0742 (10000 nM): Cc1cc(SCc2sc(-c3ccc(C(F)(F)F)c(F)c3)nc2C)ccc1OCC(=O)O
OSU-03012 (5000 nM): NCC(=O)Nc1ccc(-n2nc(C(F)(F)F)cc2-c2ccc3c(ccc4ccccc43)c2)cc1
SNS-032 (50 nM): CC(C)(C)c1cnc(CSc2cnc(NC(=O)C3CCNCC3)s2)o1
STA-4783 (30 nM): CN(NC(=O)CC(=O)NN(C)C(=S)c1ccccc1)C(=S)c1ccccc1
JZL184 (5000 nM): O=C(Oc1ccc([N+](=O)[O-])cc1)N1CCC(C(O)(c2ccc3c(c2)OCO3)c2ccc3c(c2)OCO3)CC1
lapatinib (4000 nM): CS(=O)(=O)CCNCc1ccc(-c2ccc3ncnc(Nc4ccc(OCc5cccc(F)c5)c(Cl)c4)c3c2)o1
SNS-314 (4 nM): O=C(Nc1cccc(Cl)c1)Nc1ncc(CCNc2ncnc3ccsc23)s1

Pair	WM115
SNS-032 + SNS-314	193
SNS-314 + JZL184	164
SNS-032 + STA-4783	2650
SNS-314 + STA-4783	2720
GW0742 + JZL184	97.0
SNS-032 + JZL184	309
fludarabine + GW0742	148
fludarabine + SNS-314	431
OSU-03012 + fludarabine	187
STA-4783 + fludarabine	3870
JZL184 + OSU-03012	138
JZL184 + lapatinib	67.5
JZL184 + STA-4783	1980
JZL184 + fludarabine	50.7
SNS-032 + lapatinib	395
lapatinib + OSU-03012	59.8
GW0742 + STA-4783	256
fludarabine + lapatinib	140
SNS-314 + GW0742	183
GW0742 + OSU-03012	26.4
SNS-032 + GW0742	344
lapatinib + STA-4783	1320
SNS-032 + fludarabine	228
SNS-314 + OSU-03012	542

For reference, 2 entries once more:

| Pair | WM115 |
|---|---|
| SNS-032 + lapatinib | 395 |
| GW0742 + JZL184 | 97.0 |